According to PubChem BioAssay AID588590 (National Center for Advancing Translational Sciences (NCATS), 2011):
The campaign covered roughly 390,000 compounds. About 4,000 (1%) were called active. The shares of active, inactive and inconclusive entries below differ from those in the screen. Calls follow the shape of the dose curve; as a rule, active = well fitted inhibition curve with a large enough effect; inconclusive = small, poorly fitted or top-dose-only effect, or another doubt; inactive = no such curve, though single readings can be large or run the other way. Potencies of inconclusive entries are doubtful fits and often do not repeat.

Amino acid sequences for entries named in this document (tags omitted). A change or cut given only in a name is not applied to a line headed by its entry.
UniProt Q9UNA4: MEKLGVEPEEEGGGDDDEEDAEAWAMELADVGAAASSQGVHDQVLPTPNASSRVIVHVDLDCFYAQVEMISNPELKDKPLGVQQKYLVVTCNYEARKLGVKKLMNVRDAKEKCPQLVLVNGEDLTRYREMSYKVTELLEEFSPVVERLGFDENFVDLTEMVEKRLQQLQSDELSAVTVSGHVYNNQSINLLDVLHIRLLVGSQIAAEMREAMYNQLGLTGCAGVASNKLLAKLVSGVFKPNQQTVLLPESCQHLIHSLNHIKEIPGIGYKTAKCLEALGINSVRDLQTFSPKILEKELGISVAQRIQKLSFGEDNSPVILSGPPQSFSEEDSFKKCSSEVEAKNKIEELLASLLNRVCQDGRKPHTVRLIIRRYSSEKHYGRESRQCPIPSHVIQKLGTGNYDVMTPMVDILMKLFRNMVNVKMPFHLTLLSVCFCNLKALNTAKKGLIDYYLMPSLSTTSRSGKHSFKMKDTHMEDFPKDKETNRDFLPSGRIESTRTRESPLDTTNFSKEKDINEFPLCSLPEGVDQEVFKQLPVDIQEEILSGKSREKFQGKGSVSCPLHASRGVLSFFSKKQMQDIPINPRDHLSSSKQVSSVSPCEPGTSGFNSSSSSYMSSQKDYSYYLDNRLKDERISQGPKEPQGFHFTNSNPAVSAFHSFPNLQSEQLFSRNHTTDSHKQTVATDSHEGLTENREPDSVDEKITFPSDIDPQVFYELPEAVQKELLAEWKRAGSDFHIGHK

Biological target: DNA polymerase iota (Homo sapiens) (UniProt Q9UNA4)
Test: qHTS for Inhibitors of Polymerase Iota
Conditions: Pol iota fluorescent replication assay, 10 min; series mostly up to 115 µM
Outline: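 Pol iota at 10 nM preincubated 15 min with compounds at room temperature; reaction started with fluorescent substrate, 50 nM final. Fluorescence read kinetically at 0 and 10 min; buffer-only wells as negative control.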
Potency is read from the fitted curve at half-maximal effect.

Potency, inactive:
Cc1ccc(Oc2ncccc2NC(=O)CCCC(=O)O)c2c1CCC2, Cc1ccc(Nc2c(-c3c[nH]c4ccccc34)nc3ccccn23)cc1, c1csc(-c2nn[nH]n2)c1, O=C(COc1cc2oc(=O)c3c(c2cc1Cl)CCC3)Nc1ccc(CN2CCOCC2)cc1, O=C(O)c1ccc(NC(=O)c2ccc3c(c2)C(=O)N(c2ccccc2)C3=O)cc1, CC1(C)CC(=O)C2=C(C1)N(c1cccc(Cl)c1)C(=O)NC2(C(F)(F)F)C(F)(F)F, COc1ccc(S(=O)(=O)N2CCCCC2)cc1NC(=O)c1cccc(S(=O)(=O)N2CC(C)OC(C)C2)c1 (stereo not drawn), CC(C)(C)OC(=O)N1CCC(c2c(C(=O)NCc3ccccc3)cnn2-c2cccc(F)c2)CC1, CCSc1nn(CC(=O)Nc2cccc(CC)c2)c(N)c1S(=O)(=O)c1ccccc1, CCOC(=O)c1cc(OCc2csc(-c3ccccc3)n2)cc(C(=O)OCC)c1, CS(=O)(=O)N(CC(=O)Nc1ccccc1)Cc1ccc(Cl)cc1, O=C(CSc1nc2ccccc2nc1Cc1ccc(Cl)cc1)Nc1ccc2c(c1)OCO2, O=C1CC(C(=O)N2CCc3ccccc32)CN1c1cccc(C(F)(F)F)c1 (stereo not drawn), CC(=O)n1cc(/C=N/NC(=O)c2ccc([N+](=O)[O-])cc2)c2ccccc21, CC(C)c1ccc(/C=C2\SC(=S)N(CCC(=O)NCCCn3ccnc3)C2=O)cc1, CCOc1ccc(N2CC(NC(=O)c3ccco3)CC2=O)cc1 (stereo not drawn)

Potency, active:
O=Cc1cn(-c2ccccc2)nc1-c1cc2cc(O)ccc2oc1=O 22.4 µM

Potency, inconclusive:
CC(C)(C)c1ccc(C(=O)N/C(=C\c2ccco2)C(=O)Nc2ccccc2C(=O)O)cc1 15.8 µM [inhibitor, full curve, poor fit], O=C(COC(=O)CCc1nc2ccccc2s1)NC(=O)NCc1ccco1 56.2 µM [inhibitor, partial curve, poor fit], COc1cc(CCCN2CCNC[C@@H]2Cc2ccccc2)cc(OC)c1OC 39.8 µM [inhibitor, partial curve, poor fit], COc1ccc(CN2C(=O)C(NC(=O)c3cccc(C)c3)(C(F)(F)F)N=C2c2ccccc2)cc1 (stereo not drawn) 79.4 µM [inhibitor, single point], Nc1c(Cl)cc(S(N)(=O)=O)cc1S(N)(=O)=O 70.8 µM [inhibitor, single point], COc1ccc(OC)c(CCNC(=O)c2cc3c(s2)-c2c(C)cccc2OC3)c1 22.4 µM [inhibitor, single point], Cc1cc(Cl)ccc1N=c1ssnc1Cl 8.91 µM [inhibitor, partial curve, poor fit], COc1ccc(/C=C/C(=O)OCC(=O)NCC2CCCO2)cc1 (stereo not drawn) 8.91 µM [inhibitor, partial curve, poor fit], Cc1ccc(CNC(=O)CSc2nc3c(sc4ccccc43)c(=O)n2CCCOC(C)C)cc1 5.01 µM [inhibitor, full curve, poor fit], C#CCOCCOCCOCCNc1nc(N2CCN(C(=O)CCCCCCCCCCNC(=O)[C@@H](CCSC)n3cc(CCO)nn3)CC2)nc(N2CCN(C(=O)CCCCCCCCCCNC(=O)[C@H]([C@@H](C)CC)n3cc(CCCCN=C(N)N)nn3)CC2)n1 20 µM [inhibitor, partial curve, poor fit], Cn1cccc1CC(=O)N/N=C\c1ccccc1 79.4 µM [inhibitor, partial curve], CCOc1ccccc1NC(=O)Nc1ccc2c(c1)OCO2 89.1 µM [inhibitor, single point], COc1cc(OC)c(/C=C/c2c3ccccc3cc[n+]2C)c(OC)c1 100 µM [inhibitor, partial curve, poor fit], CCSc1ncc(Cl)c(C(=O)Nc2ccccc2Cl)n1 3.16 µM [inhibitor, full curve], COc1ccc(CCN(C)Cc2c(O)ccc3cc(Br)ccc23)cc1OC 89.1 µM [inhibitor, single point], S=C(c1ccc(Br)cc1)N1CCN(Cc2ccccc2)CC1 14.1 µM [inhibitor, full curve, poor fit], Cc1ccc2nc(/C(C#N)=C\c3ccc(OC(=O)c4cccs4)cc3)[nH]c2c1 50.1 µM [inhibitor, partial curve, poor fit], O=C(NC1CCCC1)c1ccc(CNc2c(N3CCOCC3)c(=O)c2=O)cc1 35.5 µM [inhibitor, single point], CCn1ccnc1CN(C)C(=O)c1ccc2nc(Cc3ccc(OC)cc3)oc2c1 63.1 µM [inhibitor, partial curve, poor fit], Cc1ccccc1/C=C/c1nc2ccccc2c(=O)[nH]1 39.8 µM [inhibitor, single point], O=C(Nc1cc(=O)[nH]c(=O)[nH]1)c1cccc(Br)c1 89.1 µM [inhibitor, single point], Cc1cccc(N2CC(C(=O)Nc3nnc(SCC(=O)N4CCOCC4)s3)CC2=O)c1 (stereo not drawn) 39.8 µM [inhibitor, full curve], O=C(O)c1ccccc1-c1ccc(/C=C/c2cc(C(F)(F)F)[nH]c(=O)n2)o1 20 µM [inhibitor, full curve], CC(C)CC(NS(=O)(=O)c1ccc2c(c1)oc(=O)n2C)C(=O)NCc1cccnc1 (stereo not drawn) 31.6 µM [inhibitor, single point], COc1ccccc1NC(=O)Cn1c(O)c(N=NC(=O)c2ccccc2O)c2ccccc21 12.6 µM [inhibitor, partial curve, poor fit], COc1cc(C=O)ccc1OCc1ccncc1 44.7 µM [inhibitor, partial curve, poor fit], COC(=O)CCSc1cc(NCCCOC(C)=O)c([N+](=O)[O-])c2nonc12 20 µM [inhibitor, partial curve, poor fit], O=c1[nH]cc(I)cc1I 25.1 µM [inhibitor, single point], C[n+]1ccccc1C1CCCC/C1=N\NC(N)=S (stereo not drawn) 28.2 µM [inhibitor, partial curve, poor fit], COc1ccc(C)cc1NC(=O)c1ccc(NS(=O)(=O)c2c(C)noc2C)cc1 89.1 µM [inhibitor, single point], CCCCC1=CC2=CC(=O)C(C)(OC(=O)CC)C(=O)C2=CN1C(CO)CO (stereo not drawn) 35.5 µM [inhibitor, partial curve, poor fit], Cn1c2ccccc2c(=O)c2ccc(-c3ccc4c(c3)OCO4)cc21 22.4 µM [inhibitor, partial curve, poor fit], COC(=O)C1=C(C)N(Cc2ccc(OC)cc2)C(=O)C1 56.2 µM [inhibitor, partial curve, poor fit], Cc1cccc2c1c1ccc3c(c1n2C)C(=O)C=CC3=O 39.8 µM [inhibitor, single point], COc1cccc(N=C2NC(=O)/C(=C/c3cc([N+](=O)[O-])ccc3O)S2)c1 35.5 µM [inhibitor, single point], O=C(/C=C/c1ccc2c(c1)OCO2)c1ccc(O)cc1O 44.7 µM [inhibitor, partial curve, poor fit], O=C(NNC(=O)c1ccc2ccccc2c1)Nc1ccc(F)cc1 70.8 µM [inhibitor, partial curve, poor fit], O=C(COC(=O)/C=C/c1cccc(F)c1)NNC(=O)c1ccccc1 89.1 µM [inhibitor, single point], COc1ccc(N2CCN(C(=S)Nc3cc(C)cc(C)c3)CC2)cc1 89.1 µM [inhibitor, partial curve], CCN1C(=O)[C@H]2[C@H]3CN=C(SCc4ccc(C)cc4)N3[C@@](CC)(C(=O)OC)[C@H]2C1=O 1.26 µM [inhibitor, full curve, poor fit], COc1ccc(Cn2ccc3nc(C)c(C(=O)Nc4ccc(OC)cc4)cc3c2=O)cc1 89.1 µM [inhibitor, single point], Cc1ccc(NC2=C/C(=N\S(=O)(=O)c3cccs3)c3ccccc3C2=O)c(C)c1 6.31 µM [inhibitor, full curve], O=c1cc(-c2ccc(O)cc2)oc2cc(O)cc(O)c12 12.6 µM [inhibitor, partial curve, poor fit], Cc1csc(NC(=O)CSc2nc3sc(C)c(C)c3c(=O)[nH]2)n1 70.8 µM [inhibitor, partial curve, poor fit], COc1ccc(C(=O)NNC(=O)CSc2nnc(-c3cccnc3)n2C)cc1 31.6 µM [inhibitor, partial curve, poor fit], CCC1Nc2ncnc(N3CCN(c4ccccc4)CC3)c2N(Cc2ccc(Cl)cc2)C1=O (stereo not drawn) 39.8 µM [inhibitor, single point]
